Test results published in the supplement of paper PMC5949888.
± gives the standard deviation of the averaged measurements. Most values lie at the floor of the assay. Slopes are relative: functional sequences can read slightly below zero.

test system: Saccharomyces cerevisiae PS128 hsf1 delta, HSF1(1-493) fusion; test: growth estimate (transactivation domain function in HSF1 fusion, heat-shock survival) (a.u. (slope of normalised read count over time)); higher = stronger growth at 37°C, i.e. more transactivation activity; conditions: library: random library

| Substance | growth estimate |
| --- | --- |
| LKLPVVRESDTDVVELSLSN | < -0.25 |
| LKLVFVRGSRNGSIHW | < -0.25 |
| LKMAGGVGRSDASPGVK | < -0.25 |
| LKNKPRNTAVDTRTLLF | < -0.25 |
| LKRCVWAL | < -0.25 |
| LKRKGGRACVEQDYVGNPVS | < -0.25 |
| LKSF | < -0.25 |
| LKVV | < -0.25 |
| LKYVRSQQRNNVANARTWVH | < -0.25 |
| LLAIVTQPCP | < -0.25 |
| LLCEGRFLIVPIQGYTVDVG | < -0.25 |
| LLCHYMATFIRSRSWPSWG | < -0.25 |
| LLCPTQG | < -0.25 |
| LLCTIIGLAKDSAEAQRLEL | -0.173 |
| LLEDYKMCPFLHVYASIQRP | < -0.25 |
| LLEPPNTWQRTMLFSLRLRL | < -0.25 |
| LLFAREA | < -0.25 |
| LLFNVGLVQLR | < -0.25 |
| LLFSLLIEYLHVVSHRNQPY | < -0.25 |
| LLFWERSGKLSSVQTMLSYA | -0.246 |
| LLGANLQESSIGGQLSVVDP | < -0.25 |
| LLGATTHRYKDAGVYEIRGT | < -0.25 |
| LLGAVGPSFSDRKRQAKRHA | < -0.25 |
| LLGISDRSSPCFA | < -0.25 |
| LLGKCYL | < -0.25 |

Some of the entries so far, with tabs:
Substance	growth estimate
LLCPTQG	< -0.25
LLCTIIGLAKDSAEAQRLEL	-0.173
LLEDYKMCPFLHVYASIQRP	< -0.25
LLEPPNTWQRTMLFSLRLRL	< -0.25
LLFAREA	< -0.25

(cont.)

| Substance | growth estimate |
| --- | --- |
| LLGKEGAPKAW | < -0.25 |
| LLGLVSWWGGMFMTPPRKIT | < -0.25 |
| LLGNKMLARPVCELATMGVR | -0.192 |
| LLGPF | < -0.25 |
| LLGSQAVKRVLDTVLLGSSR | < -0.25 |
| LLGTVSLH | < -0.25 |
| LLHCKSPTLGPIYKVLILAD | < -0.25 |
| LLHWLTTQSL | < -0.25 |
| LLIATDMGRLVQILRTIYEQ | < -0.25 |
| LLKARCVS | < -0.25 |
| LLKGVGLPRAVLHWKASSGA | < -0.25 |
| LLKRKTEVVTGGLNH | < -0.25 |
| LLKTT | < -0.25 |
| LLLANLNSLQDRQAQRVIGG | < -0.25 |
| LLLKRTYGR | < -0.25 |
| LLLLKSAKIDSVRRS | < -0.25 |
| LLLMNFKAI | < -0.25 |
| LLLSGRWTSKLVSRGYQRDP | < -0.25 |
| LLLSSVGSAAVRIEISEHRK | < -0.25 |
| LLMTSDRHGVSEANGTVQRA | < -0.25 |
| LLNRIRSTSNAARPHRPRFR | < -0.25 |
| LLNSSRLCRE | < -0.25 |
| LLPGVSWQYFRGPGEGRLYL | < -0.25 |
| LLPRGDNDFPKGPDYATFGQ | < -0.25 |
| LLPRS | < -0.25 |

| Substance | growth estimate |
| --- | --- |
| LLPSPARVPPQLINYRTFRS | < -0.25 |
| LLR | < -0.25 |
| LLRIPLVSRVHSPRFSIGSW | < -0.25 |
| LLRVI | < -0.25 |
| LLSDGRSFAVAPK | < -0.25 |
| LLSGNVRVKQGNL | < -0.25 |
| LLSLKRRPWFLEGRISDPAR | < -0.25 |
| LLSMVVYGKCGRAFGAKVTQ | < -0.25 |
| LLSSFRPHN | < -0.25 |
| LLSSGSSCLLLWPTRPRAC | < -0.25 |
| LLSSHLLPGRIMVQAGE | -0.235 |
| LLSVPTGLQKVITCGS | < -0.25 |
| LLSVSAGSAHSEGKLI | < -0.25 |
| LLT | < -0.25 |
| LLTRSTPDTRD | < -0.25 |
| LLTYVAHDSL | < -0.25 |
| LLVESRRTRSAGPVLCAEQV | < -0.25 |
| LLVFEFY | < -0.25 |
| LLVHCAPLGLIRFGH | < -0.25 |
| LLVLMECRSTPVHHNGDLAR | < -0.25 |
| LLVRECRRNNLGTRTRACSY | < -0.25 |
| LLVRRVGDTYFKIIG | < -0.25 |
| LLWRIDALRIRNPAWARGLS | < -0.25 |
| LLYAMRSLIHHADRRHARSR | < -0.25 |
| LLYPLTGGQAQAPCSVTVNR | < -0.25 |

An excerpt of these results, with bars between the fields.
Substance | growth estimate
LLR | < -0.25
LLRVI | < -0.25
LLSDGRSFAVAPK | < -0.25
LLSMVVYGKCGRAFGAKVTQ | < -0.25
LLVFEFY | < -0.25
LLVRECRRNNLGTRTRACSY | < -0.25

The list continues.

| Substance | growth estimate |
| --- | --- |
| LLYVCPRVVRLSARLACRWP | < -0.25 |
| LMAPRRSTSKQVRRKTCALS | -0.245 |
| LMC | < -0.25 |
| LMCSKLGTSGNSLGRRSPPS | -0.243 |
| LMDPHGLLSRD | < -0.25 |
| LMDVRFV | < -0.25 |
| LMEFSNLDPSS | < -0.25 |
| LMELCLTWCAPLSRNVRSQS | < -0.25 |
| LMGCWRRGQRGLPLITRWAF | < -0.25 |
| LMGHERCPVWLGKLERTT | < -0.25 |
| LMGRYPFTIRIVMPSNLLSR | < -0.25 |
| LMGTGLLWRNAGRNPSHGPE | < -0.25 |
| LMGVSRAEMDRDLLRAVKGT | < -0.25 |
| LMISALIWLYFLGLSGVPCR | < -0.25 |
| LMLRRVGHSFAKST | < -0.25 |
| LMPLCLERLFIICEAK | < -0.25 |
| LMPSEVRVSMTSRRDMFVRF | < -0.25 |
| LMRSCV | < -0.25 |
| LMSDGAAGVP | < -0.25 |
| LMSEWSPCWRLSTTLHLDSE | < -0.25 |
| LMVDHFWSGPYLGVMDRWPA | -0.149 |
| LMVYMRL | < -0.25 |
| LNANQYNMEEVMGPDAGAIP | < -0.25 |
| LNAPVH | < -0.25 |
| LNGISI | < -0.25 |

| Substance | growth estimate |
| --- | --- |
| LNGSSTKVPKLDPCCASVCT | < -0.25 |
| LNHIALRIPLWGIAVDVRQV | < -0.25 |
| LNIVY | < -0.25 |
| LNL | < -0.25 |
| LNLAAVALYGQKYNLNLGTS | < -0.25 |
| LNMHSIEFGCRRH | < -0.25 |
| LNPFYLLCLADRLERVPG | < -0.25 |
| LNPGLKYCSCRL | < -0.25 |
| LNPRSECAEPE | < -0.25 |
| LNPTSQMSVVQRRSRLSIIL | < -0.25 |
| LNQDSELRGPVLAKAC | < -0.25 |
| LNRRGLRESVQFRLQI | < -0.25 |
| LNRVECSCTVIRCVIPTPKV | < -0.25 |
| LNS | -0.2491 ± 0.0013 |
| LNSIRLVLTCI | < -0.25 |
| LNSIVRLSIVGKASSQNLSR | < -0.25 |
| LNSSRRAQEALALAYDSDSG | < -0.25 |
| LNTGNYKYD | < -0.25 |
| LNTHVSPQCGSAA | < -0.25 |
| LNTYRSWG | < -0.25 |
| LNWLEDALANF | < -0.25 |
| LNWLWLGFIRQLLICAPSCR | < -0.25 |
| LNWYRHRFACLHGRPQWTRS | < -0.25 |
| LPAASSSKDWVPTGLVQLII | < -0.25 |
| LPAFSPAQRPCRGKTLQHRW | < -0.25 |

| Substance | growth estimate |
| --- | --- |
| LPAGVVQNLAWLCAPAMRLS | < -0.25 |
| LPARLRPLSEGVEV | < -0.25 |
| LPCCIGFPGGEGP | < -0.25 |
| LPCQLSHHFRSLHVERVRHW | < -0.25 |
| LPDCRHK | < -0.25 |
| LPDPFAVGYARPGHELVP | < -0.25 |
| LPERRGIVCV | < -0.25 |
| LPGCRPYLLGGLGVHGTRCR | < -0.25 |
| LPGEETLFEALNSNVSF | < -0.25 |
| LPGHHGVWLRLGEYLCALPP | < -0.25 |
| LPGLLPGRYDLDRGRHAQVR | < -0.25 |
| LPGLMVSPRALPRDQHLPLR | < -0.25 |
| LPGPGDWVSA | < -0.25 |
| LPGWLCQLQWDLAVRRR | < -0.25 |
| LPHLGDEVVVVSSGG | < -0.25 |
| LPIGHVSDGRDKEPRRFGA | < -0.25 |
| LPKGSPRSLGTADQKAI | < -0.25 |
| LPLLRNAALGARVGCMVWVM | -0.246 |
| LPLQAAGGSVG | < -0.25 |
| LPLTLTHVLLISK | < -0.25 |
| LPLTTASNCSH | < -0.25 |
| LPLVVCGTARELQ | < -0.25 |
| LPMRCAHLSERLIPTYAEAY | < -0.253 |
| LPPHPRNLSGS | < -0.25 |
| LPPMVSYYFIAG | < -0.25 |

| Substance | growth estimate |
| --- | --- |
| LPPYKK | < -0.25 |
| LPQLAE | < -0.25 |
| LPQQIMWLQPALLHSLNLLS | < -0.25 |
| LPRDWTHYGRKALGGRYPGP | < -0.25 |
| LPRLKMTGGSSANRPVPSSF | < -0.25 |
| LPRPNLSGVPIVVTKGARDR | < -0.25 |
| LPRRIALTRQQSAANRGYKN | < -0.25 |
| LPRSYTVGASLELMS | < -0.25 |
| LPRVQYAYYGRLNSWTSCNT | < -0.25 |
| LPS | < -0.25 |
| LPSEQAITEV | < -0.25 |
| LPSTRK | < -0.25 |
| LPSTRRVTAGVVKYCRTGRI | < -0.25 |
| LPTGDSDSRNADDRH | < -0.25 |
| LPTLVHWRQRARHAAPFRDV | < -0.25 |
| LPVFDLGRSLGCGPYSRPAC | < -0.25 |
| LPVI | < -0.25 |
| LPVIKTVSIVRARGVWISTQ | < -0.25 |
| LPVPSRRRVF | < -0.25 |
| LPYSVLLIQAWRLYSESGQQ | < -0.25 |
| LQAIQASIRYCYWDRGGTTG | < -0.25 |
| LQASLRVYGLCWPHNAFATG | < -0.25 |
| LQATLY | < -0.25 |
| LQAVRGHPSTGFICASHGSC | < -0.25 |
| LQCSNFSVVQQS | < -0.25 |

Looked up one by one from above (4):

| Substance | growth estimate |
| --- | --- |
| LPVIKTVSIVRARGVWISTQ | < -0.25 |
| LPTGDSDSRNADDRH | < -0.25 |
| LPS | < -0.25 |
| LPTLVHWRQRARHAAPFRDV | < -0.25 |

The results go on:

| Substance | growth estimate |
| --- | --- |
| LQDAEQLPADLIIHNRQGPT | < -0.25 |
| LQDEC | < -0.25 |
| LQFGSN | < -0.25 |
| LQGHHAGHGGPPMCTPGSAV | < -0.25 |
| LQGLVLQPVRRMVLPQGIRP | < -0.25 |
| LQGVQLIDAS | < -0.25 |
| LQGY | < -0.25 |
| LQIAYSVPVYHLVSMSAAAR | < -0.25 |
| LQKAE | < -0.25 |
| LQKLC | < -0.25 |
| LQKLLICSAPNKTAATVCCE | < -0.25 |
| LQKVYNGMFVGL | < -0.25 |
| LQLCILMGLKSAIAGDCNRP | < -0.25 |
| LQLDYDD | < -0.25 |
| LQM | < -0.25 |
| LQPAR | < -0.25 |
| LQQP | -0.231 |
| LQQSSIS | < -0.25 |
| LQQYRMIGRPETSAETQGY | < -0.25 |
| LQRSSFLCII | < -0.25 |
| LQSPTDGSVGCVFFLEDPGG | < -0.25 |
| LQSSAATRLVELKFDDGVRR | < -0.25 |
| LQSSLPWKSRPAEQEIWSYE | < -0.25 |
